# Assay results as given in the supplement of paper PMC8728848.
# The other results are listed elsewhere or left out.
# B1: Clec18A (Homo sapiens) (protein)
# chain: PFHTCDLRIDGDCFMVSSEADTYYRARMKCQRKGGVLAQIKRQKVQDILAFYLGRLETTNEVIDSDFETRNFWIGLTYKTAKDSFRWATGEHQAFTSFAFGQPDNHGFGNCVELQASAAFNWNDQRCKTRNRYICQ
# How the values were obtained:
# Test in all cases: glycan array binding signal (z-score within array); higher = stronger binding
# Details in all cases: glycan notation: IUPAC condensed, linker removed
# [1] = molecular target: Fuc(a1-2)Gal(b1-4)GlcNAc(b1-3)Gal(b1-4)GlcNAc(b1-3)Gal(b1-4)GlcNAc
# Method in brief: (§1)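 Glycan array data came from 3228 arrays in the Consortium for Functional Glycomics database, and only arrays with an available protein sequence were kept. Glycan names were put into IUPAC-condensed notation, and columns mapping to the same glycan were averaged. The binding signal is a within-array Z-score, averaged across arrays of one protein sequence run at different concentrations or buffers and across linkers. A negative Z-score can be read as non-binding.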
# [2] = molecular target: Fuc(a1-2)Gal(b1-4)GlcNAc(b1-3)GalNAc
# Method in brief: as §1
# [3] = molecular target: Fuc(a1-2)Gal(b1-4)GlcNAc(b1-3)[Fuc(a1-2)Gal(b1-4)GlcNAc(b1-6)]GalNAc
# Method in brief: as §1
# [4] = molecular target: Fuc(a1-2)Gal(b1-4)GlcNAc(b1-3)[Fuc(a1-3)[Gal(b1-4)]GlcNAc(b1-6)]Gal(b1-4)Glc
# Method in brief: as §1
# [5] = molecular target: Fuc(a1-2)Gal(b1-4)GlcNAc(b1-6)GalNAc
# Method in brief: as §1
# [6] = molecular target: Fuc(a1-2)Gal(b1-4)GlcNAc6S
# Method in brief: as §1
# [7] = molecular target: Fuc(a1-2)Gal(b1-4)[Fuc(a1-3)]GlcNAc
# Method in brief: as §1
# [8] = molecular target: Fuc(a1-2)Gal(b1-4)[Fuc(a1-3)]GlcNAc(b1-2)Man(a1-3)[Fuc(a1-2)Gal(b1-4)[Fuc(a1-3)]GlcNAc(b1-2)Man(a1-6)]Man(b1-4)GlcNAc(b1-4)[Fuc(a1-6)]GlcNAc
# Method in brief: as §1
# [9] = molecular target: Fuc(a1-2)Gal(b1-4)[Fuc(a1-3)]GlcNAc(b1-2)[Fuc(a1-2)Gal(b1-4)[Fuc(a1-3)]GlcNAc(b1-4)]Man(a1-3)[Fuc(a1-2)Gal(b1-4)[Fuc(a1-3)]GlcNAc(b1-2)Man(a1-6)]Man(b1-4)GlcNAc(b1-4)GlcNAc
# Method in brief: as §1
# [10] = molecular target: Fuc(a1-2)Gal(b1-4)[Fuc(a1-3)]GlcNAc(b1-3)Gal(b1-4)[Fuc(a1-3)]GlcNAc
# Method in brief: as §1
# [11] = molecular target: Fuc(a1-2)Gal(b1-4)[Fuc(a1-3)]GlcNAc(b1-3)Gal(b1-4)[Fuc(a1-3)]GlcNAc(b1-3)Gal(b1-4)[Fuc(a1-3)]GlcNAc
# Method in brief: as §1
# [12] = molecular target: Fuc(a1-2)Gal(b1-4)[Fuc(a1-3)]GlcNAc(b1-3)GalNAc
# Method in brief: as §1
# [13] = molecular target: Fuc(a1-2)Gal(b1-4)[Fuc(a1-3)]GlcNAc(b1-3)[Neu5Ac(a2-6)Gal(b1-4)GlcNAc(b1-6)]Gal(b1-4)Glc
# Method in brief: as §1
# [14] = molecular target: Fuc(a1-2)Gal3S(b1-4)GlcNAc
# Method in brief: as §1
# [15] = molecular target: Fuc(a1-2)Gal6S(b1-3)GlcNAc
# Method in brief: as §1
# [16] = molecular target: Fuc(a1-2)Gal6S(b1-3)GlcNAc6S
# Method in brief: as §1
# Fuc(a1-2)Gal6S(b1-4)Glc = molecular target: Fuc(a1-2)Gal6S(b1-4)Glc
# Method in brief: as §1
# [17] = molecular target: Fuc(a1-2)Gal6S(b1-4)Glc6S
# Method in brief: as §1
# Fuc(a1-2)[Gal(a1-3)]Gal = molecular target: Fuc(a1-2)[Gal(a1-3)]Gal
# Method in brief: as §1
# [18] = molecular target: Fuc(a1-2)[Gal(a1-3)]Gal(b1-3)GalNAc
# Method in brief: as §1
# [19] = molecular target: Fuc(a1-2)[Gal(a1-3)]Gal(b1-3)GalNAc(b1-3)Gal(a1-4)Gal(b1-4)Glc
# Method in brief: as §1
# [20] = molecular target: Fuc(a1-2)[Gal(a1-3)]Gal(b1-3)GlcNAc
# Method in brief: as §1
# [21] = molecular target: Fuc(a1-2)[Gal(a1-3)]Gal(b1-3)GlcNAc(b1-2)Man(a1-3)[Fuc(a1-2)[Gal(a1-3)]Gal(b1-3)GlcNAc(b1-2)Man(a1-6)]Man(b1-4)GlcNAc(b1-4)GlcNAc
# Method in brief: as §1
# [22] = molecular target: Fuc(a1-2)[Gal(a1-3)]Gal(b1-3)GlcNAc(b1-2)Man(a1-3)[Fuc(a1-2)[Gal(a1-3)]Gal(b1-3)GlcNAc(b1-2)Man(a1-6)]Man(b1-4)GlcNAc(b1-4)[Fuc(a1-6)]GlcNAc
# Method in brief: as §1
# [23] = molecular target: Fuc(a1-2)[Gal(a1-3)]Gal(b1-3)GlcNAc(b1-3)GalNAc
# Method in brief: as §1
# [24] = molecular target: Fuc(a1-2)[Gal(a1-3)]Gal(b1-3)GlcNAc(b1-6)GalNAc
# Method in brief: as §1
# [25] = molecular target: Fuc(a1-2)[Gal(a1-3)]Gal(b1-4)Glc
# Method in brief: as §1
# [26] = molecular target: Fuc(a1-2)[Gal(a1-3)]Gal(b1-4)GlcNAc
# Method in brief: as §1
# [27] = molecular target: Fuc(a1-2)[Gal(a1-3)]Gal(b1-4)GlcNAc(b1-2)Man
# Method in brief: as §1
# [28] = molecular target: Fuc(a1-2)[Gal(a1-3)]Gal(b1-4)GlcNAc(b1-2)Man(a1-3)[Fuc(a1-2)[Gal(a1-3)]Gal(b1-4)GlcNAc(b1-2)Man(a1-6)]Man(b1-4)GlcNAc(b1-4)GlcNAc
# Method in brief: as §1
# [29] = molecular target: Fuc(a1-2)[Gal(a1-3)]Gal(b1-4)GlcNAc(b1-2)Man(a1-3)[Fuc(a1-2)[Gal(a1-3)]Gal(b1-4)GlcNAc(b1-2)Man(a1-6)]Man(b1-4)GlcNAc(b1-4)[Fuc(a1-6)]GlcNAc
# Method in brief: as §1
# [30] = molecular target: Fuc(a1-2)[Gal(a1-3)]Gal(b1-4)GlcNAc(b1-3)GalNAc
# Method in brief: as §1
# [31] = molecular target: Fuc(a1-2)[Gal(a1-3)]Gal(b1-4)GlcNAc(b1-3)[Fuc(a1-2)[Gal(a1-3)]Gal(b1-4)GlcNAc(b1-6)]GalNAc
# Method in brief: as §1
# [32] = molecular target: Fuc(a1-2)[Gal(a1-3)]Gal(b1-4)GlcNAc(b1-6)GalNAc
# Method in brief: as §1
# [33] = molecular target: Fuc(a1-2)[Gal(a1-3)]Gal(b1-4)[Fuc(a1-3)]Glc
# Method in brief: as §1
# [34] = molecular target: Fuc(a1-2)[Gal(a1-3)]Gal(b1-4)[Fuc(a1-3)]GlcNAc
# Method in brief: as §1
# [35] = molecular target: Fuc(a1-2)[Gal(a1-3)]Gal(b1-4)[Fuc(a1-3)]GlcNAc(b1-3)GalNAc
# Method in brief: as §1
# [36] = molecular target: Fuc(a1-2)[Gal(a1-4)]Gal(b1-4)GlcNAc
# Method in brief: as §1
# [37] = molecular target: Fuc(a1-2)[GalNAc(a1-3)]Gal
# Method in brief: as §1
# [38] = molecular target: Fuc(a1-2)[GalNAc(a1-3)]Gal(b1-3)GalNAc(a1-3)[Fuc(a1-2)]Gal(b1-4)GlcNAc
# Method in brief: as §1
# [39] = molecular target: Fuc(a1-2)[GalNAc(a1-3)]Gal(b1-3)GalNAc(b1-3)Gal(a1-4)Gal(b1-4)Glc
# Method in brief: as §1
# [40] = molecular target: Fuc(a1-2)[GalNAc(a1-3)]Gal(b1-3)GlcNAc
# Method in brief: as §1
# [41] = molecular target: Fuc(a1-2)[GalNAc(a1-3)]Gal(b1-3)GlcNAc(b1-2)Man(a1-3)[Fuc(a1-2)[GalNAc(a1-3)]Gal(b1-3)GlcNAc(b1-2)Man(a1-6)]Man(b1-4)GlcNAc(b1-4)GlcNAc
# Method in brief: as §1
# [42] = molecular target: Fuc(a1-2)[GalNAc(a1-3)]Gal(b1-3)GlcNAc(b1-2)Man(a1-3)[Fuc(a1-2)[GalNAc(a1-3)]Gal(b1-3)GlcNAc(b1-2)Man(a1-6)]Man(b1-4)GlcNAc(b1-4)[Fuc(a1-6)]GlcNAc
# Method in brief: as §1
# [43] = molecular target: Fuc(a1-2)[GalNAc(a1-3)]Gal(b1-3)GlcNAc(b1-3)GalNAc
# Method in brief: as §1
binder,measurement,setting,value
B1,glycan array binding signal (z-score),[1],-0.291
same,glycan array binding signal (z-score),[2],-0.366
same,glycan array binding signal (z-score),[3],-0.545
same,glycan array binding signal (z-score),[4],0.032
same,glycan array binding signal (z-score),[5],0.652
same,glycan array binding signal (z-score),[6],-0.39
same,glycan array binding signal (z-score),[7],-0.32
same,glycan array binding signal (z-score),[8],-0.722
same,glycan array binding signal (z-score),[9],-0.584
same,glycan array binding signal (z-score),[10],1.43
same,glycan array binding signal (z-score),[11],-0.469
same,glycan array binding signal (z-score),[12],-0.67
same,glycan array binding signal (z-score),[13],0.601
same,glycan array binding signal (z-score),[14],0.16
same,glycan array binding signal (z-score),[15],-0.357
same,glycan array binding signal (z-score),[16],0.484
same,glycan array binding signal (z-score),Fuc(a1-2)Gal6S(b1-4)Glc,-0.552
same,glycan array binding signal (z-score),[17],0.108
same,glycan array binding signal (z-score),Fuc(a1-2)[Gal(a1-3)]Gal,-0.524
same,glycan array binding signal (z-score),[18],0.101
same,glycan array binding signal (z-score),[19],-0.648
same,glycan array binding signal (z-score),[20],-0.796
same,glycan array binding signal (z-score),[21],-0.382
same,glycan array binding signal (z-score),[22],0.408
same,glycan array binding signal (z-score),[23],-0.397
same,glycan array binding signal (z-score),[24],1.74
same,glycan array binding signal (z-score),[25],-0.703
same,glycan array binding signal (z-score),[26],-0.589
same,glycan array binding signal (z-score),[27],-0.778
same,glycan array binding signal (z-score),[28],-0.014
same,glycan array binding signal (z-score),[29],-0.426
same,glycan array binding signal (z-score),[30],0.207
same,glycan array binding signal (z-score),[31],-0.697
same,glycan array binding signal (z-score),[32],-0.183
same,glycan array binding signal (z-score),[33],-0.915
same,glycan array binding signal (z-score),[34],-0.456
same,glycan array binding signal (z-score),[35],-0.039
same,glycan array binding signal (z-score),[36],-0.801
same,glycan array binding signal (z-score),[37],0.557
same,glycan array binding signal (z-score),[38],0.205
same,glycan array binding signal (z-score),[39],-0.845
same,glycan array binding signal (z-score),[40],-0.377
same,glycan array binding signal (z-score),[41],-0.538
same,glycan array binding signal (z-score),[42],0.059
same,glycan array binding signal (z-score),[43],-0.79
